Experimental: In situ dissolution experiments were performed with a μDISS Profiler apparatus (pION Inc., MA, USA). The system consists of an integrated diode array spectrophotometer connected to a fiber optic UV probe located directly in the reaction vessel (20 ml scintillation vial) and measures the concentration as a function of time, without filtering the solution. Measurement of the dissolution kinetics was carried out at 220 nm and 270 nm, which are optimal for the UV detection of resveratrol and […], respectively. The concentrations of the compounds in the dissolution media (water, buffer pH=4, pH=6) were calculated by means of a standard curve.

solubility in water: practically insoluble in water
SMILES: COc1cc(/C=C/C(=O)CC(=O)/C=C/c2ccc(O)c(OC)c2)ccc1O [curcumin]

— US11560358B2, “Resveratrol-piperazine co-crystals” (LETAVIS AB, priority 2018, dated 2023)
